From the supplement of paper PMC10849652
This is one part of the list.

Amino acid sequences for entries named in this document (tags omitted). A change or cut given only in a name is not applied to a line headed by its entry.
UniProt Q15287: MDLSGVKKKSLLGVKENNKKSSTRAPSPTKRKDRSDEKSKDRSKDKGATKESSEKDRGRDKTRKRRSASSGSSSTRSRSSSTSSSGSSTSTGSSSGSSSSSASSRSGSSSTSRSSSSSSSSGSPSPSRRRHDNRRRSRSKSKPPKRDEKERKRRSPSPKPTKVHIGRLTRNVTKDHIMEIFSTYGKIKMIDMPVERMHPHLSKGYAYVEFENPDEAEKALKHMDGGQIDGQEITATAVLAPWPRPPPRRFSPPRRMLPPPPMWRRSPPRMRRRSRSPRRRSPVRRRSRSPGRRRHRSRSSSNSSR
UniProt P10155: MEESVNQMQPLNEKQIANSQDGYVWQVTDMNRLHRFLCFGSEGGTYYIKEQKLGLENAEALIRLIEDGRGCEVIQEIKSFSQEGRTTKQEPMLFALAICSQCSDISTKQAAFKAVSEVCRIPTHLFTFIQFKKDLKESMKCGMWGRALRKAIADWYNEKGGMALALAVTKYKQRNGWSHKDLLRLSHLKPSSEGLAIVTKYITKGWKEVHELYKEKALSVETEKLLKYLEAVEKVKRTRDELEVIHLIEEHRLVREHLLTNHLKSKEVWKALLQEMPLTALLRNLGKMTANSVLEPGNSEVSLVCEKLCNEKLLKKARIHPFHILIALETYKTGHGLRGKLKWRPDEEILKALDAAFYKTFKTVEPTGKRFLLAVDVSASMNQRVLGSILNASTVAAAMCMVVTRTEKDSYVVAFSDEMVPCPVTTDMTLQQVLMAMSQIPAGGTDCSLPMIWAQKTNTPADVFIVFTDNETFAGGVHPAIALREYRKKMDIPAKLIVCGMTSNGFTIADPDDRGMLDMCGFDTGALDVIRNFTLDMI
UniProt Q9H6T3, whole entry, looked up: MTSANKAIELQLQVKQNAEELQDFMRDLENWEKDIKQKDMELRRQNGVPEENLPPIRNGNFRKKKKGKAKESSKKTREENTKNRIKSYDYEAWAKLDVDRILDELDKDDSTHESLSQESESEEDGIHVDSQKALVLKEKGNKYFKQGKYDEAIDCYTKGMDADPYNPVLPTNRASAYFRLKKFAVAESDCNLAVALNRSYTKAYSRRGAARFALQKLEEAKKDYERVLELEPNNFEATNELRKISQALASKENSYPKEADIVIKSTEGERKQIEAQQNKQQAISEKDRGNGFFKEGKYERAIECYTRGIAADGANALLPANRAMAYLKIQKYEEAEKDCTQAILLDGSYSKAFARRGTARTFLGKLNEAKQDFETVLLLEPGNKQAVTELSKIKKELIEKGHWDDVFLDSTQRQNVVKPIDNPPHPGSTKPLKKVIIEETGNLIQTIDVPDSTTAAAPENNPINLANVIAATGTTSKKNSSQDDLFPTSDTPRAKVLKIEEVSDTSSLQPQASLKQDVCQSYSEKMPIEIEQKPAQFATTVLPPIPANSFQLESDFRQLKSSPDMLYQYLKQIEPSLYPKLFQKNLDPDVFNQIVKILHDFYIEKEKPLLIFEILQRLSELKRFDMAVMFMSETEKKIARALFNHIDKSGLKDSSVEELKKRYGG
UniProt Q96AT9: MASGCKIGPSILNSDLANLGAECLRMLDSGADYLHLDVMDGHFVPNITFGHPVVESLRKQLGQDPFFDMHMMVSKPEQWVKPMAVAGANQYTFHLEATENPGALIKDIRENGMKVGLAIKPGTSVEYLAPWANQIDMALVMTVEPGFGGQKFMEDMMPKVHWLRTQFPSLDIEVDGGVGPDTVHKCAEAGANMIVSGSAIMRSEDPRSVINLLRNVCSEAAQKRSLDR
UniProt Q9H4A4: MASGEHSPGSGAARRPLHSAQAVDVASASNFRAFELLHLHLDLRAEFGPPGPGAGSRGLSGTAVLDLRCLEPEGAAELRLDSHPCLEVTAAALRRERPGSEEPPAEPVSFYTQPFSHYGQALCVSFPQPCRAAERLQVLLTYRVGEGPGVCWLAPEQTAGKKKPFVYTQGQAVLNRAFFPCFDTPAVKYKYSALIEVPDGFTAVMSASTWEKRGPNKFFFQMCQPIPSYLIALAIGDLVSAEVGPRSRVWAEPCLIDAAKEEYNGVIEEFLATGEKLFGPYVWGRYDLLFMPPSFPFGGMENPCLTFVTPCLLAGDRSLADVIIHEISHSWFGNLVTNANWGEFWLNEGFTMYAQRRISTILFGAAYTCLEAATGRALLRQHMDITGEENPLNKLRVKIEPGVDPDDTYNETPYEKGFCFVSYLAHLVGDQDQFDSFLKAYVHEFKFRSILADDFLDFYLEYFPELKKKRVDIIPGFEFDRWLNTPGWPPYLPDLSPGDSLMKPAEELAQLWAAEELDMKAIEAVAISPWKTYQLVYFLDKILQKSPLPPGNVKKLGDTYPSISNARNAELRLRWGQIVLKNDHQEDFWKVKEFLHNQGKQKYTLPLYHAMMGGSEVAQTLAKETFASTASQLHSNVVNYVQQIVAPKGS
UniProt P62745, whole entry, looked up: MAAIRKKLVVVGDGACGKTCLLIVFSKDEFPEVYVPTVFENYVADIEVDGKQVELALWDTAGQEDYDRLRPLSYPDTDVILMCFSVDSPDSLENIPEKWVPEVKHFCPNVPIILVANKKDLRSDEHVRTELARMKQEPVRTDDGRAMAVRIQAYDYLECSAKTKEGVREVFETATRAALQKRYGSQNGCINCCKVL
UniProt Q9BRS2: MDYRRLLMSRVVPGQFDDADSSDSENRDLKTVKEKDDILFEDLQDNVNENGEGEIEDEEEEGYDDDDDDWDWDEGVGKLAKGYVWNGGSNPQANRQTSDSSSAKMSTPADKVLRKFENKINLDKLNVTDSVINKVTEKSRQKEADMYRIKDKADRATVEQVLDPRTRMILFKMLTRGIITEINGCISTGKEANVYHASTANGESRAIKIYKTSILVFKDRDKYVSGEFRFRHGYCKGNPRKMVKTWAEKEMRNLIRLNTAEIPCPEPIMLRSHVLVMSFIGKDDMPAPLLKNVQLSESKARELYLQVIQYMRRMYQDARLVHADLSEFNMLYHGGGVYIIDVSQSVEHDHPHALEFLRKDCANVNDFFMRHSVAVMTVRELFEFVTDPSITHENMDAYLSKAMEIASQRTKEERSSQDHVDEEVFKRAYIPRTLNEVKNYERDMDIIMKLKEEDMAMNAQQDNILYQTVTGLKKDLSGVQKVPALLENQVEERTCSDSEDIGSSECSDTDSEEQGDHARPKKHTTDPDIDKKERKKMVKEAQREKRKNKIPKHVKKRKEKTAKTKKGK
UniProt Q969K3: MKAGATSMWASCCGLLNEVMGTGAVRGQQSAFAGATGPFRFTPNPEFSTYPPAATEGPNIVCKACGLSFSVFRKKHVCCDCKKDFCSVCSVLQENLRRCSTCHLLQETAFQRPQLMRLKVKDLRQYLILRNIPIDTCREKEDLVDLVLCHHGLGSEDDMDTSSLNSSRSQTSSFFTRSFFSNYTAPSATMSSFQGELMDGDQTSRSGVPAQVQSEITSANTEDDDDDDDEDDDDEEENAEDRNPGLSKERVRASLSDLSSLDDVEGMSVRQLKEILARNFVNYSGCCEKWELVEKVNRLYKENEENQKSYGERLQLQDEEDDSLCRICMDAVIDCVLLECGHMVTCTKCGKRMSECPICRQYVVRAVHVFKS
UniProt Q6NUQ1: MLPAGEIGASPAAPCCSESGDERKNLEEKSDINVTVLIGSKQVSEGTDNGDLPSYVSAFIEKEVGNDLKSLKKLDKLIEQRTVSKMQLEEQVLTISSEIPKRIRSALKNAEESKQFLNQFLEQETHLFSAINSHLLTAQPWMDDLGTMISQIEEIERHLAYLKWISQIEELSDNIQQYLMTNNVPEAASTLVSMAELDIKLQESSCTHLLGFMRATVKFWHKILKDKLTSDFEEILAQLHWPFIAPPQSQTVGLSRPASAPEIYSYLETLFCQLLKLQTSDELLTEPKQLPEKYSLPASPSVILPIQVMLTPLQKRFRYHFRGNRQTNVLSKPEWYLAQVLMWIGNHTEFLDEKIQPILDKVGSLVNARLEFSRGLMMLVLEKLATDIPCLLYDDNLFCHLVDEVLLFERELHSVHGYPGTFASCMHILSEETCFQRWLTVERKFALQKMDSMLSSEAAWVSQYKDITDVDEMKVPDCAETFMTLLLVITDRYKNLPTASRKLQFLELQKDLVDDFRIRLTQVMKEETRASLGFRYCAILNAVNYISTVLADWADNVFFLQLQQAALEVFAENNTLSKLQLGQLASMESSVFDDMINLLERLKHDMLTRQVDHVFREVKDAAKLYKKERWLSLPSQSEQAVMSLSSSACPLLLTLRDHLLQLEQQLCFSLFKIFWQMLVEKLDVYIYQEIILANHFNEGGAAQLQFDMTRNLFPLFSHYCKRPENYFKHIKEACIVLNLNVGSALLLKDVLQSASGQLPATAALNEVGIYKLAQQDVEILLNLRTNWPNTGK
UniProt Q96TC7: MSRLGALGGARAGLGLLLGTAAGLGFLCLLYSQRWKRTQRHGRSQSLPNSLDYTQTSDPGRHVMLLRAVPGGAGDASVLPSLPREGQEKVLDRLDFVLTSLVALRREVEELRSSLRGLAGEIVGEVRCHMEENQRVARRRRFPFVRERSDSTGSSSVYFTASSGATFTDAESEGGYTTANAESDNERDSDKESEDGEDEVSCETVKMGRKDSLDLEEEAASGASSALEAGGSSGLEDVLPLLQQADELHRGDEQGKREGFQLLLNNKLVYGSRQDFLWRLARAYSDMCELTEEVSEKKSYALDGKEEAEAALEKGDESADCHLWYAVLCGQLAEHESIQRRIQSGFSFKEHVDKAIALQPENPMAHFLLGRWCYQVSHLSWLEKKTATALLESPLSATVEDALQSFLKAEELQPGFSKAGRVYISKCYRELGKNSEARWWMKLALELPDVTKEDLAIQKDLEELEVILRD
UniProt Q9NTX7: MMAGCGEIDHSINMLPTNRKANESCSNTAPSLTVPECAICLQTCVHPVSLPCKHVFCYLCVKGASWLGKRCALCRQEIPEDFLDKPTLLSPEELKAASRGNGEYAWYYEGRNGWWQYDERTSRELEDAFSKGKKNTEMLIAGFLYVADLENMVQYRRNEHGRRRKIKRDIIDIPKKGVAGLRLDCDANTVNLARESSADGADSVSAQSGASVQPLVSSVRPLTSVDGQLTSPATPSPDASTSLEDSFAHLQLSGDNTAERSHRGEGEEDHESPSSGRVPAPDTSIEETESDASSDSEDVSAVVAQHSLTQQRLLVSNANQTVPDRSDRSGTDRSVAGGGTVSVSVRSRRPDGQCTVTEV
UniProt Q8TDP1: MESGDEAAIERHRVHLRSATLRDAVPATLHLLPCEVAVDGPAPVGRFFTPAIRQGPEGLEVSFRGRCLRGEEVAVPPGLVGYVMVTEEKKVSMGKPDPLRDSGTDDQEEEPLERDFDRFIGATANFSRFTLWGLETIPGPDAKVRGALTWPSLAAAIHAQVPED
UniProt P27694, whole entry, looked up: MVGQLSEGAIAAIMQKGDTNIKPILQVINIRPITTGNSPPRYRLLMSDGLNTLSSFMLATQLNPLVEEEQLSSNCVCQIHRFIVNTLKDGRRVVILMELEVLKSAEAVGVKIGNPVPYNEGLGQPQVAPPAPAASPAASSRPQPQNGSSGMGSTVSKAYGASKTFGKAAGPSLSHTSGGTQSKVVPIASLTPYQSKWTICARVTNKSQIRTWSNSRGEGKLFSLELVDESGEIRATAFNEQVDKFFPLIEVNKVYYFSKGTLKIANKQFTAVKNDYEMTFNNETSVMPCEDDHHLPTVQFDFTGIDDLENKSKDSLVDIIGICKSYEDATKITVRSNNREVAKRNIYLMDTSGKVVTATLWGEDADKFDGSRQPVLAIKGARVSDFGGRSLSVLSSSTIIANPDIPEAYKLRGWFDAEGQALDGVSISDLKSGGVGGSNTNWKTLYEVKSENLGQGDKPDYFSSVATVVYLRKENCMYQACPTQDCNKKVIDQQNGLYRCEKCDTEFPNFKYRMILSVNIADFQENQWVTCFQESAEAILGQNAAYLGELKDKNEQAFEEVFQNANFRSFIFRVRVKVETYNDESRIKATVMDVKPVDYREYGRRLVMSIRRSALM
UniProt P61586, whole entry, looked up: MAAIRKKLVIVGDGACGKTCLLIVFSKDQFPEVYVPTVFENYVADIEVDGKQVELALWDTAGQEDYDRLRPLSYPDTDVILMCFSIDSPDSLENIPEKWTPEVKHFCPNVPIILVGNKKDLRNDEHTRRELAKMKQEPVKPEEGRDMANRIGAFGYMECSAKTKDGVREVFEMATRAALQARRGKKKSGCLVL
UniProt Q9NWS8: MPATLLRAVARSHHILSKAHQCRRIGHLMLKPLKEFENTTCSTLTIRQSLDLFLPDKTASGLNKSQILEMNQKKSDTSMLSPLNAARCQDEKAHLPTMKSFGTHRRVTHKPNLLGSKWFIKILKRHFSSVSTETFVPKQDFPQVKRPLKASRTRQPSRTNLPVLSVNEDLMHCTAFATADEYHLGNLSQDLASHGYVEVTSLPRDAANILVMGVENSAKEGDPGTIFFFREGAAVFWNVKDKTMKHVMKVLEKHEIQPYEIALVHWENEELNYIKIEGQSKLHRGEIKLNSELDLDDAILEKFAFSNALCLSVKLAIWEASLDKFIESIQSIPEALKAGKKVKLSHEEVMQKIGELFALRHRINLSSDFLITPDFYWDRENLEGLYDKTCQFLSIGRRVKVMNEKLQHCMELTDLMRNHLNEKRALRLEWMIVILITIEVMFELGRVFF

How the values were obtained:
Assay in all cases: log2 fold change, soluble protein after heating vs DMSO (PISA); higher = thermal stabilisation; K562 lysate, 10 uM; active = over 0.2 and 3.5 SD of the protein, either way, in both replicates (recomputed)
erlotinib = compound: C#Cc1cccc(Nc2ncnc3cc(OCCOC)c(OCCOC)cc23)c1 [erlotinib]
How it was run: (§1)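 To prepare the extract, K562 pellets were dounce-homogenised in PBS pH 7.4 with 1 mM MgCl2, giving crude material at 1 mg/mL protein. This was treated with 10 μM compound for 30 min, then heated in aliquots for 3 min over 48°C-58°C before pooling and addition of NP-40 to 0.5% at 4°C. Centrifugation at 21,000xg for 90 min left soluble protein in the supernatant, which TMTpro 16plex LC-MS/MS quantified with equalised channel sums. Results are log-two fold changes in thermal stability compared with solvent controls, from duplicates.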

[1] = compound: C/C(=N\NC(=O)C1=CC(=CC=C1)S(=O)(=O)N2CCOCC2)/C3=C(C=CC(=C3)Cl)O
How it was run: as §1

[2] = compound: C1=CC(=CC=C1C2=NC3=C(N2)C=C(C=C3)C(=O)N)OC4=CC=C(C=C4)Cl
How it was run: as §1

[3] = compound: C1=CC2=C(C=CC(=C2)/C=C\3/C(=O)NC(=NCC4=CC=CS4)S3)N=C1
How it was run: as §1

[4] = compound: C1=CC2=NC=CN=C2C=C1/C=C/3\C(=O)NC(=O)S3
How it was run: as §1

[5] = compound: C1=CC=C(C=C1)C2=NC(=C(N2)C3=CC=NC=C3)C4=CC(=C(C=C4)Cl)O
How it was run: as §1

[6] = compound: C1=CC=C2C(=C1)C3=NNC4=CC=CC(=C43)C2=O
How it was run: as §1

[7] = compound: C1CCN(C1)C(=O)NC2=CC=CC(=C2)NC3=NC=C(C(=N3)NCCC4=CN=CN4)Br
How it was run: as §1

[8] = compound: C1CN(CCC1(CC2=CC=C(C=C2)Cl)N)C3=NC=NC4=C3C=CN4
How it was run: as §1

IRAK-1-4 Inhibitor I = compound: C1COCCN1CCN2C3=CC=CC=C3N=C2NC(=O)C4=CC(=CC=C4)[N+](=O)[O-] [IRAK-1-4 Inhibitor I]
How it was run: as §1

Target	log2 fold change (erlotinib)	log2 fold change [1]	log2 fold change [2]	log2 fold change [3]	log2 fold change [4]	log2 fold change [5]	log2 fold change [6]	log2 fold change [7]	log2 fold change [8]	log2 fold change (IRAK-1-4 Inhibitor I)
RPL17 isoform 3 (UniProt P18621)	inactive: 0.01	inactive: 0.016	inactive: -0.006	inactive: 0.044	inactive: -0.01	inactive: 0.017	inactive: 0.054	inactive: 0.01	inactive: -0.004	inactive: 0
RPL10A (UniProt P62906)	inactive: 0.017	inactive: -0.051	inactive: -0.016	inactive: 0.017	inactive: 0.024	inactive: 0.036	inactive: 0.051	inactive: 0.011	inactive: -0.024	inactive: 0.028
RNPS1 (UniProt Q15287)	inactive: -0.008	inactive: -0.105	inactive: 0.025	inactive: -0.151	inactive: -0.005	inactive: -0.006	inactive: 0.027	inactive: -0.016	inactive: -0.073	inactive: 0.023
RO60 (UniProt P10155)	inactive: 0.015	inactive: -0.033	inactive: 0.026	inactive: 0.017	inactive: -0.052	inactive: 0.016	inactive: 0.028	inactive: 0	inactive: -0.022	inactive: -0.01
RPL13A (UniProt P40429)	inactive: -0.032	inactive: -0.089	inactive: -0.064	inactive: -0.022	inactive: 0.009	inactive: 0.03	inactive: 0.041	inactive: 0.029	inactive: -0.007	inactive: 0.001
RPAP3 (UniProt Q9H6T3)	inactive: 0.007	inactive: 0.007	inactive: -0.005	inactive: 0.004	inactive: -0.002	inactive: -0.003	inactive: -0.007	inactive: -0.011	inactive: 0.001	inactive: -0.004
RNF40 (UniProt O75150)	inactive: -0.008	inactive: -0.01	inactive: 0.007	inactive: -0.039	inactive: -0.016	inactive: 0.003	inactive: -0.04	inactive: 0.011	inactive: 0.024	inactive: -0.008
RPE (UniProt Q96AT9)	inactive: 0.005	inactive: -0.053	inactive: 0.065	inactive: -0.008	inactive: -0.115	inactive: -0.006	inactive: 0.037	inactive: -0.108	inactive: 0.041	inactive: 0.05
RIC8A (UniProt Q9NPQ8)	inactive: 0.052	inactive: -0.159	inactive: -0.035	inactive: 0.031	inactive: 0.012	inactive: -0.024	inactive: -0.06	inactive: 0.01	inactive: 0.01	inactive: -0.013
RNF213, A0A0A0MTC1	inactive: 0.041	inactive: 0.004	inactive: 0	inactive: 0.042	inactive: 0.015	inactive: 0.021	inactive: -0.045	inactive: -0.005	inactive: 0.047	inactive: 0.025
RNPEP (UniProt Q9H4A4)	inactive: 0.03	inactive: 0.002	inactive: -0.002	inactive: 0.009	inactive: 0.004	inactive: -0.011	inactive: -0.01	inactive: 0.004	inactive: 0	inactive: 0.007
RHOB (UniProt P62745)	inactive: -0.006	inactive: -0.044	inactive: -0.017	inactive: 0.02	inactive: 0.176	inactive: 0.041	inactive: -0.013	inactive: 0.017	inactive: 0.047	inactive: 0.01
RIOK1 (UniProt Q9BRS2)	inactive: -0.033	inactive: -0.029	inactive: 0.034	inactive: 0.209	active: 0.393	inactive: 0.128	active: 0.4	inactive: -0.024	inactive: 0.028	inactive: -0.02
RNF34 isoform 2 (UniProt Q969K3)	inactive: 0.042	inactive: 0.037	inactive: 0.101	inactive: 0.058	inactive: -0.151	inactive: -0.196	inactive: 0.025	inactive: -0.03	inactive: -0.033	inactive: -0.085
RIF1 (UniProt Q5UIP0)	inactive: 0.027	inactive: -0.032	inactive: 0.015	inactive: 0.016	inactive: -0.046	inactive: 0.017	inactive: -0.051	inactive: -0.023	inactive: 0.035	inactive: -0.001
RPL10 (UniProt F8W7C6)	inactive: 0.027	inactive: -0.17	inactive: -0.016	inactive: -0.092	inactive: 0.036	inactive: -0.132	inactive: -0.131	inactive: 0.017	inactive: -0.005	inactive: -0.079
RPL15 (UniProt P61313)	inactive: -0.005	inactive: -0.103	inactive: -0.016	inactive: 0.004	inactive: -0.022	inactive: 0	inactive: 0.051	inactive: 0.011	inactive: -0.052	inactive: -0.019
RINT1 (UniProt Q6NUQ1)	inactive: 0.056	inactive: 0.029	inactive: -0.01	inactive: 0.012	inactive: 0.03	inactive: -0.042	inactive: -0.048	inactive: -0.029	inactive: 0.067	inactive: 0.074
RMC1 (UniProt Q96DM3)	inactive: 0.015	inactive: -0.056	inactive: 0.017	inactive: -0.06	inactive: 0.004	inactive: -0.008	inactive: -0.054	inactive: -0.001	inactive: 0.035	inactive: 0.006
RMDN3 (UniProt Q96TC7)	inactive: -0.021	inactive: 0.198	inactive: -0.081	inactive: -0.01	inactive: -0.008	inactive: 0.02	inactive: -0.015	inactive: 0.007	inactive: 0.009	inactive: 0.025
RMND5A (UniProt Q9H871)	inactive: 0.014	inactive: -0.029	inactive: 0.016	inactive: 0.002	inactive: -0.078	inactive: -0.011	inactive: -0.014	inactive: -0.005	inactive: -0.017	inactive: 0
RIPK1 (UniProt Q13546)	inactive: -0.026	inactive: -0.01	inactive: -0.017	inactive: -0.022	inactive: -0.015	inactive: 0.008	inactive: 0.08	inactive: 0.031	inactive: -0.057	inactive: 0
RNF146 (UniProt Q9NTX7)	inactive: -0.019	inactive: 0.01	inactive: 0.048	inactive: 0.025	inactive: 0.007	inactive: 0.07	inactive: -0.018	inactive: 0.003	inactive: 0.021	inactive: 0.019
RNASEH2C (UniProt Q8TDP1)	inactive: 0.011	inactive: -0.009	inactive: 0	inactive: -0.009	inactive: 0.025	inactive: -0.004	inactive: 0.007	inactive: 0.016	inactive: -0.009	inactive: -0.053
RPA1 (UniProt P27694)	inactive: 0.014	inactive: -0.055	inactive: 0.019	inactive: -0.004	inactive: 0.005	inactive: -0.003	inactive: 0.009	inactive: -0.006	inactive: 0.009	inactive: -0.005
RHOA (UniProt P61586)	inactive: 0.001	inactive: -0.093	inactive: 0.049	inactive: -0.093	inactive: -0.09	inactive: 0.064	inactive: 0.038	inactive: -0.022	inactive: 0.039	inactive: -0.022
RMND1 (UniProt Q9NWS8)	inactive: -0.042	inactive: -0.001	inactive: -0.007	inactive: 0.021	inactive: -0.022	inactive: -0.021	inactive: -0.006	inactive: 0.003	inactive: 0.051	inactive: 0.008
RNF141 (UniProt Q8WVD5)	inactive: 0.052	inactive: -0.1	inactive: 0.052	inactive: 0.092	inactive: -0.013	inactive: 0.014	inactive: 0.03	inactive: -0.095	inactive: -0.023	inactive: 0.019
RPL14 (UniProt P50914)	inactive: -0.021	inactive: -0.048	inactive: 0.006	inactive: -0.011	inactive: 0.017	inactive: 0.035	inactive: 0.033	inactive: 0.062	inactive: -0.003	inactive: -0.004
RPL23A (UniProt P62750)	inactive: -0.006	inactive: 0.011	inactive: -0.051	inactive: -0.012	inactive: 0	inactive: 0.024	inactive: 0.044	inactive: 0.022	inactive: 0.001	inactive: 0

Two entries from above, in markdown:

| Target | log2 fold change (erlotinib) | log2 fold change [1] | log2 fold change [2] | log2 fold change [3] | log2 fold change [4] | log2 fold change [5] | log2 fold change [6] | log2 fold change [7] | log2 fold change [8] | log2 fold change (IRAK-1-4 Inhibitor I) |
| --- | --- | --- | --- | --- | --- | --- | --- | --- | --- | --- |
| RHOB (UniProt P62745) | inactive: -0.006 | inactive: -0.044 | inactive: -0.017 | inactive: 0.02 | inactive: 0.176 | inactive: 0.041 | inactive: -0.013 | inactive: 0.017 | inactive: 0.047 | inactive: 0.01 |
| RIOK1 (UniProt Q9BRS2) | inactive: -0.033 | inactive: -0.029 | inactive: 0.034 | inactive: 0.209 | active: 0.393 | inactive: 0.128 | active: 0.4 | inactive: -0.024 | inactive: 0.028 | inactive: -0.02 |
